From patent US20070244041A1 (Reoscience A/S, priority 2004, published 2007)

Experiment: general procedure: Fmoc solid-phase peptide synthesis; TentaGel-S-Ram-Fmoc (0.22-0.31 mmol/g); preformed HOBt esters (3 eq.)
Settings: whole synthesis, relative to resin load, scale of the general procedure 1 g resin

Substance | isolated yield [%]
h-PYY(3-36)-NH2 Pro-Pro 11-12 | 5
h-PYY-(13-36)-K29(H-IKPEA)-NH2 | 5.5
